# In the supplement of paper PMC8728848:
# The list shows a part of the results.
# Assays:
# Test in all cases: glycan array binding signal (z-score within array); higher = stronger binding
# Settings in all cases: glycan notation: IUPAC condensed, linker removed
# [1] = biological target: Gal(b1-4)GlcNAc(a1-6)Gal(b1-4)GlcNAc
# Procedure, shortened: (§1)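 The binding signal is a Z-score computed within each array. Data were drawn from 3228 arrays in the Consortium for Functional Glycomics database, restricted to those with a known protein sequence. Scores were averaged over arrays of the same protein sequence at different concentrations or buffers, and over linkers, and negative values can be taken as non-binding.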
# [2] = biological target: Gal(b1-4)GlcNAc(b1-2)Man(a1-3)Man(b1-4)GlcNAc(b1-4)GlcNAc
# Procedure, shortened: as §1
# [3] = biological target: Gal(b1-4)GlcNAc(b1-2)Man(a1-3)[Gal(b1-4)GlcNAc(b1-2)Man(a1-6)]Man(b1-4)GlcNAc(b1-4)GlcNAc
# Procedure, shortened: as §1
# [4] = biological target: Gal(b1-4)GlcNAc(b1-2)Man(a1-3)[Gal(b1-4)GlcNAc(b1-2)Man(a1-6)]Man(b1-4)GlcNAc(b1-4)[Fuc(a1-6)]GlcNAc
# Procedure, shortened: as §1
# [5] = biological target: Gal(b1-4)GlcNAc(b1-2)Man(a1-3)[GlcNAc(b1-2)Man(a1-6)]Man(b1-4)GlcNAc(b1-4)GlcNAc
# Procedure, shortened: as §1
# [6] = biological target: Gal(b1-4)GlcNAc(b1-2)Man(a1-3)[Man(a1-6)]Man(b1-4)GlcNAc(b1-4)GlcNAc
# Procedure, shortened: as §1
# [7] = biological target: Gal(b1-4)GlcNAc(b1-2)Man(a1-6)Man(b1-4)GlcNAc(b1-4)GlcNAc
# Procedure, shortened: as §1
# [8] = biological target: Gal(b1-4)GlcNAc(b1-2)Man(a1-6)[GlcNAc(b1-2)Man(a1-3)]Man(b1-4)GlcNAc(b1-4)GlcNAc
# Procedure, shortened: as §1
# [9] = biological target: Gal(b1-4)GlcNAc(b1-2)Man(a1-6)[Man(a1-3)]Man(b1-4)GlcNAc(b1-4)GlcNAc
# Procedure, shortened: as §1
# [10] = biological target: Gal(b1-4)GlcNAc(b1-2)[Gal(b1-4)GlcNAc(b1-4)]Man(a1-3)[Gal(b1-4)GlcNAc(b1-2)Man(a1-6)]Man(b1-4)GlcNAc(b1-4)GlcNAc
# Procedure, shortened: as §1
# [11] = biological target: Gal(b1-4)GlcNAc(b1-2)[Gal(b1-4)GlcNAc(b1-4)]Man(a1-3)[Gal(b1-4)GlcNAc(b1-2)[Gal(b1-4)GlcNAc(b1-6)]Man(a1-6)]Man(b1-4)GlcNAc(b1-4)GlcNAc
# Procedure, shortened: as §1
# [12] = biological target: Gal(b1-4)GlcNAc(b1-3)Gal(b1-3)GlcNAc
# Procedure, shortened: as §1
# [13] = biological target: Gal(b1-4)GlcNAc(b1-3)Gal(b1-4)Glc
# Procedure, shortened: as §1
# [14] = biological target: Gal(b1-4)GlcNAc(b1-3)Gal(b1-4)GlcNAc
# Procedure, shortened: as §1
# [15] = biological target: Gal(b1-4)GlcNAc(b1-3)Gal(b1-4)GlcNAc(b1-3)Gal(b1-4)GlcNAc
# Procedure, shortened: as §1
# [16] = biological target: Gal(b1-4)GlcNAc(b1-3)Gal(b1-4)[Fuc(a1-3)]GlcNAc(b1-3)Gal(b1-4)[Fuc(a1-3)]GlcNAc
# Procedure, shortened: as §1
# [17] = biological target: Gal(b1-4)GlcNAc(b1-3)GalNAc
# Procedure, shortened: as §1
# [18] = biological target: Gal(b1-4)GlcNAc(b1-3)[Gal(b1-4)GlcNAc(b1-6)]Gal(b1-4)GlcNAc
# Procedure, shortened: as §1
# [19] = biological target: Gal(b1-4)GlcNAc(b1-3)[Gal(b1-4)GlcNAc(b1-6)]GalNAc
# Procedure, shortened: as §1
# [20] = biological target: Gal(b1-4)GlcNAc(b1-3)[GlcNAc(b1-6)]Gal(b1-4)GlcNAc
# Procedure, shortened: as §1
# [21] = biological target: Gal(b1-4)GlcNAc(b1-6)Gal(b1-4)GlcNAc
# Procedure, shortened: as §1
# [22] = biological target: Gal(b1-4)GlcNAc(b1-6)GalNAc
# Procedure, shortened: as §1
# [23] = biological target: Gal(b1-4)GlcNAc(b1-6)[Gal(b1-3)]GalNAc
# Procedure, shortened: as §1
# Gal3S(b1-3)GalNAc = biological target: Gal3S(b1-3)GalNAc
# Procedure, shortened: as §1
# Gal3S(b1-3)GlcNAc = biological target: Gal3S(b1-3)GlcNAc
# Procedure, shortened: as §1
# [24] = biological target: Gal3S(b1-3)[Fuc(a1-4)]GlcNAc
# Procedure, shortened: as §1
# Gal3S(b1-4)Glc = biological target: Gal3S(b1-4)Glc
# Procedure, shortened: as §1
# Gal3S(b1-4)Glc6S = biological target: Gal3S(b1-4)Glc6S
# Procedure, shortened: as §1
# Gal3S(b1-4)GlcNAc = biological target: Gal3S(b1-4)GlcNAc
# Procedure, shortened: as §1
# Gal3S(b1-4)GlcNAc6S = biological target: Gal3S(b1-4)GlcNAc6S
# Procedure, shortened: as §1
# [25] = biological target: Gal3S(b1-4)[Fuc(a1-3)]Glc
# Procedure, shortened: as §1
# [26] = biological target: Gal3S(b1-4)[Fuc(a1-3)]Glc6S
# Procedure, shortened: as §1
# Gal3S4S(b1-4)GlcNAc = biological target: Gal3S4S(b1-4)GlcNAc
# Procedure, shortened: as §1
# Gal3S6S(b1-4)GlcNAc = biological target: Gal3S6S(b1-4)GlcNAc
# Procedure, shortened: as §1
# Gal3S6S(b1-4)GlcNAc6S = biological target: Gal3S6S(b1-4)GlcNAc6S
# Procedure, shortened: as §1
# Gal4S(b1-4)GlcNAc = biological target: Gal4S(b1-4)GlcNAc
# Procedure, shortened: as §1
# Gal4S6S(b1-4)GlcNAc = biological target: Gal4S6S(b1-4)GlcNAc
# Procedure, shortened: as §1
binder,measurement,setting,value
"SRS2 (Toxoplasma gondii), O15695 (protein) MATRASLARQKTGAACLAVLTASPSVVAAKPWKRWVGVSVILASAFAVGVSAGPPYRYEPEKFTCRPKKGILSQWVSLLYQVQHNITFACEEATPVPTTLISEEHGLMVCAENMTPEECEANPAPLSAFLPGATKEWVTGDSVLTGLKISVPESQYPANAKSFRVGCRHNTKTGNTCMLTIHVEPRDPAVERQEARCSYTENSTLPKIFVTKDSNTMTLACGPHGAPMPESYTENYCSTPDTCDEKPFTSVIPGYLSKWFFGDPKSPLGARVRIPPEQIPSSPQINYFGCTGPTEGEGPKYNCTVPVPLGGGDPSEGSRPGGGSGGGKRGGGQGGGGSLAGFDFRQGSARHSLPSRMALSASALLAMTALAY",glycan array binding signal (z-score),[1],0.926
same,glycan array binding signal (z-score),[2],-0.517
same,glycan array binding signal (z-score),[3],-0.061
same,glycan array binding signal (z-score),[4],1.54
same,glycan array binding signal (z-score),[5],0.226
same,glycan array binding signal (z-score),[6],0.63
same,glycan array binding signal (z-score),[7],0.196
same,glycan array binding signal (z-score),[8],1.51
same,glycan array binding signal (z-score),[9],1.17
same,glycan array binding signal (z-score),[10],0.03
same,glycan array binding signal (z-score),[11],0.293
same,glycan array binding signal (z-score),[12],0.954
same,glycan array binding signal (z-score),[13],-0.424
same,glycan array binding signal (z-score),[14],0.119
same,glycan array binding signal (z-score),[15],-0.504
same,glycan array binding signal (z-score),[16],-0.041
same,glycan array binding signal (z-score),[17],0.086
same,glycan array binding signal (z-score),[18],0.719
same,glycan array binding signal (z-score),[19],6.82
same,glycan array binding signal (z-score),[20],-0.425
same,glycan array binding signal (z-score),[21],-0.575
same,glycan array binding signal (z-score),[22],0.894
same,glycan array binding signal (z-score),[23],-0.16
same,glycan array binding signal (z-score),Gal3S(b1-3)GalNAc,0.398
same,glycan array binding signal (z-score),Gal3S(b1-3)GlcNAc,0.567
same,glycan array binding signal (z-score),[24],-0.213
same,glycan array binding signal (z-score),Gal3S(b1-4)Glc,-0.359
same,glycan array binding signal (z-score),Gal3S(b1-4)Glc6S,0.326
same,glycan array binding signal (z-score),Gal3S(b1-4)GlcNAc,0.347
same,glycan array binding signal (z-score),Gal3S(b1-4)GlcNAc6S,-0.041
same,glycan array binding signal (z-score),[25],0.734
same,glycan array binding signal (z-score),[26],2.13
same,glycan array binding signal (z-score),Gal3S4S(b1-4)GlcNAc,-0.703
same,glycan array binding signal (z-score),Gal3S6S(b1-4)GlcNAc,-0.057
same,glycan array binding signal (z-score),Gal3S6S(b1-4)GlcNAc6S,-0.126
same,glycan array binding signal (z-score),Gal4S(b1-4)GlcNAc,-0.196
same,glycan array binding signal (z-score),Gal4S6S(b1-4)GlcNAc,0.612

# Pulled one by one from above, 2 records:
binder,measurement,setting,value
"SRS2 (Toxoplasma gondii), O15695 (protein) MATRASLARQKTGAACLAVLTASPSVVAAKPWKRWVGVSVILASAFAVGVSAGPPYRYEPEKFTCRPKKGILSQWVSLLYQVQHNITFACEEATPVPTTLISEEHGLMVCAENMTPEECEANPAPLSAFLPGATKEWVTGDSVLTGLKISVPESQYPANAKSFRVGCRHNTKTGNTCMLTIHVEPRDPAVERQEARCSYTENSTLPKIFVTKDSNTMTLACGPHGAPMPESYTENYCSTPDTCDEKPFTSVIPGYLSKWFFGDPKSPLGARVRIPPEQIPSSPQINYFGCTGPTEGEGPKYNCTVPVPLGGGDPSEGSRPGGGSGGGKRGGGQGGGGSLAGFDFRQGSARHSLPSRMALSASALLAMTALAY",glycan array binding signal (z-score),Gal4S6S(b1-4)GlcNAc,0.612
same,glycan array binding signal (z-score),Gal3S(b1-3)GlcNAc,0.567
